Results on one molecule are retold here after patent publication US20240254219A1 (University of California, published 2024).

For this assay, the target named is T1, LRP6 P3E3P4E4 truncation construct on HEK293 cells (human) (UniProt O75581).
T1 sequence (looked up): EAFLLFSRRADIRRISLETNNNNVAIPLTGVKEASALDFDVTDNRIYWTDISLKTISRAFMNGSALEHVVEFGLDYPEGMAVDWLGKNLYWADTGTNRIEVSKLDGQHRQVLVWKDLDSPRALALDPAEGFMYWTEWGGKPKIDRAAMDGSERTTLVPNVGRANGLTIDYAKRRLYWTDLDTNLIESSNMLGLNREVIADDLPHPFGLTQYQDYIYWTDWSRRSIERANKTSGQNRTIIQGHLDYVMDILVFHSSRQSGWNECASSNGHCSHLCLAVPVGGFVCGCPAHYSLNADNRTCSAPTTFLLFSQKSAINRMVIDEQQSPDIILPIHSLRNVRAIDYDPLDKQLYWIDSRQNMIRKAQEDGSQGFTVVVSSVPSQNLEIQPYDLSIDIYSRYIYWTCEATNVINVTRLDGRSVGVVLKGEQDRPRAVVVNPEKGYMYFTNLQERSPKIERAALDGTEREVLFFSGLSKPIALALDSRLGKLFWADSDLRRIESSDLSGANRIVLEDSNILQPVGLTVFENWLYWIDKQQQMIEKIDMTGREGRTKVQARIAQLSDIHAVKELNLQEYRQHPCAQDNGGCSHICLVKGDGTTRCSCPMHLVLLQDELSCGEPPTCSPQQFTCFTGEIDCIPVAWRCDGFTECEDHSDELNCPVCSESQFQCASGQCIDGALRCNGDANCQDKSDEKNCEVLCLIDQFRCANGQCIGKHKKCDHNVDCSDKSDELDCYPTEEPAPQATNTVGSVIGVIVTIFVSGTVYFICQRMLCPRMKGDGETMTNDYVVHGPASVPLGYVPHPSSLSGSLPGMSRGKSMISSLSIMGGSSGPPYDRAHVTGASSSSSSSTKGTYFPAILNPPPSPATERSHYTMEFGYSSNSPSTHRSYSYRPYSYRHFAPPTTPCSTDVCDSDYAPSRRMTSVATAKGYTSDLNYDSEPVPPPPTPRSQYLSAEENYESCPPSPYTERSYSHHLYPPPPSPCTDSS
Nature of the assay: flow cytometry on GFP-positive HEK293 cells co-transfected with the LRP6 construct and a GFP construct. In general terms: In flow cytometry, cells or beads pass a laser one at a time.

These are yes or no findings as the source states them, for the method shown. Some binding calls cover weakened binding; strength is not graded here.

B1: 66 IgG (Wnt-agonist human monoclonal antibody 66) (antibody, V domains shown)
VH: QVQLLQSGGGLVQPGGSLRLSCAASGFTFSTYAMSWVRQAPGKGLEWVSTIGPSGSSTYYAYADSVKGRFTISRDNYKNMLYLQMNSLRAEDTAVYYCAKEGPNSGYFDFDYWGQGTLVTVSS
VL: EIVLTQSPSSLSASVGDRVTITCRASQSISTYLNWYQQKPGKAPKVLIYAASSLQSGVPSRISGSGSGTDFTLTISSLQPEDFATYYCQQSYSIPLTFGGGTKLEIK
notes: also called 66 antibody; agonist 66 IgG
Consider B1, for which the binding entry is given as “binds”.
